Patent publication US5965539A, “Inhibitors of prenyl transferases” (Univeristy of Pittsburgh, priority 1996, dated 1999)
For part of its entries the source gives two or more results. Only these are listed. The source may hold further records. Values that stand side by side do not match, cause unknown; some may be repeats, others may stem from another dose, organism or construct than stated.

Tested on: oncogenic H-Ras activation of MAPK
Experiment: Oncogenic H-Ras activation of MAP kinase, immunoblot
Format: cell-based
Conditions: tested form: HCl
Method: Cells were treated with FTI-277, GGTI-286, or vehicle and lysed as previously described for Ras and Rap1A processing. Equal amounts of protein were separated on a 15% SDS-PAGE, transferred to nitrocellulose, and immunoblotted using an anti-MAP kinase antibody (erk2, monoclonal, UB1, Lake Placid, N.Y.). Antibody reactions were visualized using peroxidase-conjugated donkey anti-mouse IgG (Jackson ImmunoResearch Laboratories Inc., West Grove, Pa.) and an enhanced chemiluminescence detection system (ECL, Amersham Corp.)

COC(=O)[C@H](CCSC)NC(=O)c1ccc(NC[C@@H](N)CS)cc1-c1ccccc1 [FTI-277, 4-N-[2(R)-Amino-3-mercaptopropyl]amino-2-phenylbenzoyl methionine methyl ester]
concentration of complete block of oncogenic H-Ras activation of MAPK: 1 μM and 3 μM
